# Test results published in patent publication EP4269437A1.
# Sequences of proteins named here, by UniProt entry; tags and fusion partners are left off. Residues count along the entry.
# UniProt Q15116, residues 25-170: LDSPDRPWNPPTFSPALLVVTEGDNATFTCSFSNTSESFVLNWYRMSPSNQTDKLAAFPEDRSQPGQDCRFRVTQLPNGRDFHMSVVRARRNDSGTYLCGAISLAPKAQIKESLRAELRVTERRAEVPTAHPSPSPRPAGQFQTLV
# Numbering of substitutions follows the chain as printed. These are yes or no findings as the source states them, for the method shown. Some entries that bind do so weakly or less than the wild type.
# B1: NB194-P29-z1 (Fc fusion, not shown: a dimerising Fc or GST)
# heavy: QVQLVESGGGLVQPGGSLRLSCSASGHSFSIYDMGWFRQAADKERESVAVINFGRGTTYYAESVKGRFTISRDNAKNTVYLQMNSLRAEDTAVYSCGIDRRQYGLGIPPLADHWGQGSQVTVSS
# B2: NB194-P29-z9 (Fc fusion, not shown: a dimerising Fc or GST)
# heavy: B1 heavy with H27F, S28T
# B3: NB194-P29-z5 (Fc fusion, not shown: a dimerising Fc or GST)
# heavy: B1 heavy with A41P
# B4: NB194-P29-z4 (Fc fusion, not shown: a dimerising Fc or GST)
# heavy: B1 heavy with S23T
# B5: NB194-P29-z7 (Fc fusion, not shown: a dimerising Fc or GST)
# heavy: B1 heavy with R72L
# B6: NB194-P29-z6 (Fc fusion, not shown: a dimerising Fc or GST)
# heavy: B1 heavy with D42G
# B7: NB194-P29-z10 (Fc fusion, not shown: a dimerising Fc or GST)
# heavy: B1 heavy with Q1E, V2L, S23A
# B8: NB194-P29-z2 (Fc fusion, not shown: a dimerising Fc or GST)
# heavy: B1 heavy with V2L
# B9: NB194-P29-z8 (Fc fusion, not shown: a dimerising Fc or GST)
# heavy: B1 heavy with A41P, D42G
# B10: NB194-P29-z3 (Fc fusion, not shown: a dimerising Fc or GST)
# heavy: B1 heavy with R19T
# B11: NB182-z1 (Fc fusion, not shown: a dimerising Fc or GST)
# heavy: EVQLVESGGGLVQPGGSLRLSCSASGDTSFISAAGWYRQAPGKERELVSAITNTGITYYPDSVKGRFTISRDNSKNTVYLQMNSLRAEDTAVYYCNAGAPPPGGLGYDESDYWGQGTQVTVSS
# Target: PD-1 (UniProt Q15116)
# Test: SPR; set-up and antigen form not restated
row,binding,Binder
1,binds,B1
2,binds,B2
3,binds,B3
4,binds,B4
5,binds,B5
6,binds,B6
7,binds,B7
8,binds,B8
9,binds,B9
10,binds,B10

# Target: PD-1.His (UniProt Q15116)
# Test: SPR, antibody captured on protein A, PD-1.His in flow
row,binding,Binder
1,binds,B11
